Assay results published in PubChem BioAssay AID2685 (National Center for Advancing Translational Sciences (NCATS), 2010).
The campaign covered roughly 320,000 compounds. About 2,100 (0.66%) were called active. Inconclusive means that the source gave no clear call. Such entries were picked first, then a sample of the others. The call rests on the fitted dose curve; in most records, active means well fitted inhibition curve with a large enough effect in the signal ratio, with a control signal flat (not every such curve was filed as active); inconclusive means small, poorly fitted or top-dose-only effect, or effect the other way, or a change in a side signal; inactive means flat fitted curve, though single readings scatter; the % refers to the signal ratio. Potencies beside an inconclusive call are fits to weak or partial responses and may not hold up.

Experiment: qHTS Assay for Lipid Storage Modulators in Drosophila S3 Cells
Conditions: BODIPY lipid droplet fluorescence, 18-24 h, cells fed with added oleic acid; lipid storage change, negative = inhibition: at 46.1 µM (top of the series) unless noted
Outline: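 Drosophila S3 cells loaded with oleic acid (400 uM, as added) and compounds at several concentrations; lipid droplets imaged by 488-nm laser-scanning cytometry, 500–530 nm intensity and object ratio to cell channel. Percent activity normalized to 20 uM Triacsin C.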
On the % scale 0 is the no-effect control and ±100 the full control effect; potency means the concentration at half of the fitted maximal effect.

Row | SMILES | Potency | lipid storage change, negative = inhibition
1 | CCCCOC(=O)C1=C(C)NC(=O)NC1c1ccc(N(C)C)cc1 (stereo unspecified) | inconclusive: 0.461 µM [activator, partial curve, poor fit] | 
2 | Cc1cc(N2C(=O)C(O)=C(C(=O)c3cc4ccccc4o3)C2c2ccc(OC(C)C)cc2)no1 (stereo unspecified) | inconclusive: 29.1 µM [activator, single point] | 
3 | CC1CCN(c2ncnc3c2cnn3Cc2ccc(Cl)cc2)CC1 |  | inconclusive: 2.04%
4 | S=C(NCc1ccncc1)Nc1ccc(Br)cc1Cl | inconclusive: 2.91 µM [activator, single point] | 
5 | CCC(C(=O)NCCc1ccc(C)cc1)n1nc(C)c2c(C)n(-c3ccccc3)nc2c1=O (stereo unspecified) | inconclusive: 0.58 µM [falling, single point] | 
6 | CCOC(=O)N1CCN(Cc2nc(Cc3cccc(F)c3)no2)CC1 |  | inconclusive: -0.193%
7 | Cc1ccc(-c2nc3s/c(=C\c4ccco4)c(=O)n3n2)cc1 |  | inconclusive: -39.6% [at 0.0737 µM]
8 | CCS(=O)(=O)c1nc(S(=O)(=O)c2ccc(C)cc2)c(N2CCC(C)CC2)s1 |  | inconclusive: -67.8%
9 | CCOC(=O)c1c(NC(=O)CCS(=O)(=O)c2ccccc2)sc2c1CCN(C(C)C)C2 |  | inconclusive: -16.1%
10 | O=C(OCCCOC(=O)c1ccc(Br)o1)c1ccc(Br)o1 |  | inconclusive
11 | CCOC(=O)C1(Cc2ccc(Cl)cc2)CCN(C(=O)c2sc(C)nc2C)CC1 |  | inconclusive: -35.4%
12 | Cc1cc(C)cc(OCC(=O)N2Cc3ccccc3CC2C(=O)O)c1 (stereo unspecified) |  | inconclusive: -25.7%
13 | CCCC(c1nnnn1C1CCCCC1)N1CCN(C(=O)c2ccco2)CC1 (stereo unspecified) |  | inconclusive: -25.9%
14 | CCCC(=O)Nc1nc(-c2ccc3c(c2)OCCO3)cs1 | inconclusive: 7.31 µM [rising, partial curve] | 
15 | COc1cccc(OC)c1C(=O)Nc1ccc2c(c1)n(C)c(=O)n2C | inconclusive: 29.1 µM [activator, single point] | 
16 | Cc1cc(F)ccc1NC(=O)c1cc(S(=O)(=O)N2CCCC2)cn1C | inconclusive: 29.1 µM [activator, single point] | 
17 | Cc1cccc(-n2[nH]c(C)c(C=Nc3ccc4[nH]c(=O)[nH]c4c3)c2=O)c1 |  | inconclusive: -17.7%
18 | O=C(Nc1cc(Cl)ccc1O)c1cc2n(n1)C(C(F)(F)F)CC(c1ccc3c(c1)OCO3)N2 (stereo unspecified) |  | inconclusive: 40.6%
19 | COc1cc(NC(=O)CN2CCN(CC(=O)Nc3ccccc3OC)CC2)cc(OC)c1 |  | inconclusive: -90.3%
20 | COC(=O)Nc1ccc(S(=O)(=O)N2CCCC(C(=O)NC3CCS(=O)(=O)C3)C2)cc1 (stereo unspecified) | inconclusive: 29.1 µM [activator, single point] | 
21 | Cn1nc(-c2ccc(C(=O)NC3CCCCC3)cc2)c2ccccc2c1=O | inconclusive: 29.1 µM [falling, single point] | 
22 | Cc1cccc(C(=O)NCCc2ccc(S(N)(=O)=O)cc2)c1[N+](=O)[O-] | inconclusive: 2.31 µM [activator, partial curve] | 
23 | COc1ccccc1C(=O)COC(=O)C1CCN(S(=O)(=O)c2ccc(C)c(C)c2)CC1 |  | inconclusive
24 | C[C@H](NC(=O)[C@@H]1Cc2ccccc2CN1)C(=O)NC[C@H]1CC[C@H](C(=O)O)CC1 |  | inconclusive: -21%
25 | CCOc1ccc(NC(C)C(=O)N/N=C/c2cccs2)cc1 (stereo unspecified) |  | inconclusive: 13.5%
26 | Cc1ccccc1-n1c(SCC(=O)c2c(N)n(C)c(=O)n(C)c2=O)nc2sc3c(c2c1=O)CCCC3 |  | inconclusive: 24.8%

Row | SMILES | Potency | lipid storage change, negative = inhibition
27 | COc1ccc(OCCSc2nnc(-c3ccoc3C)n2C)cc1 |  | inconclusive: 11.4%
28 | CCOc1ccc(NC(=O)c2ccccc2SC)cc1 | inconclusive: 8.2 µM [falling, partial curve] | 
29 | COc1ccc(C(=O)Nc2ccc3ccccc3c2)cc1 |  | inconclusive: -5.36%
30 | O=C(O)c1cc(-c2ccccc2)nc2nc(N3CCCCC3)sc12 |  | inconclusive: -59.8%
31 | CC(OC(=O)CCc1ccccc1)C(=O)Nc1ccc(Cl)cn1 (stereo unspecified) |  | inconclusive: 35.6%
32 | CCOC(=O)C1(Cc2cccc(OC)c2)CCCN(Cc2cc(OC)c(O)c(OC)c2)C1 (stereo unspecified) |  | inconclusive: 22.4%
33 | COc1ccc(C(=O)c2cc([N+](=O)[O-])ccc2N2CCOCC2)cc1 | inconclusive: 11.6 µM [activator, partial curve] | 
34 | Nc1c(-c2ccc(Cl)cc2)cnc2c(-c3ccc(F)cc3)cnn12 |  | inconclusive: -37.6%
35 | CCCCn1c(N)c(N(CCC(C)C)C(=O)CSc2nnc(C)s2)c(=O)[nH]c1=O |  | inconclusive: 64%
36 | COc1ccc(NC(=O)Nc2ccc(C(C)C)cc2)cc1 |  | inconclusive: 4.19%
37 | O=S(=O)(c1ccccc1)C1(C2CC(c3ccccc3)=NO2)CC(O)C1 (stereo unspecified) |  | inconclusive: -16.1%
38 | Cc1cc(C)c2cc(CN(Cc3ccco3)C(=O)NCc3ccccc3)c(=O)[nH]c2c1 |  | inconclusive: 11.3%
39 | O=C(O)CSc1nnc(-c2cccs2)n1-c1ccc(Cl)cc1 | inconclusive: 0.0517 µM [falling, full curve, poor fit] | 
40 | Cc1cc(NC(=O)c2ccc(Cl)cc2)cc(C)c1OCC(=O)N1CCOCC1 |  | inconclusive: -29%
41 | Cc1ccc(-c2[nH]nc3c2C(c2ccoc2)C(C#N)=C(N)O3)cc1C (stereo unspecified) | inconclusive: 4.61 µM [activator, full curve] | 
42 | Cc1ccc(NC(=O)CN(C)C(=O)C(C)N2CCN(Cc3ccccc3C)CC2)cc1 (stereo unspecified) | inconclusive: 6.51 µM [activator, single point] | 
43 | COc1ccc(NC(=O)CC2Nc3ccccc3NC2=O)c([N+](=O)[O-])c1 (stereo unspecified) |  | inconclusive: 32.8%
44 | C=CCc1c(C)nc2c(C(=O)O)cnn2c1C |  | inconclusive: 35.9%
45 | O=[N+]([O-])c1ccccc1/C=C/CN1CCCCC1 |  | inconclusive: -14%
46 | O=C(O)/C=C/C(=O)N(Cc1ccc2c(c1)OCO2)C1CC(=O)N(CCc2ccccc2)C1=O (stereo unspecified) |  | inconclusive: -0.337%
47 | CC(C)OCCCNC(=O)CNC(=O)c1cccs1 |  | inconclusive: -13.7%
48 | CC(NC(=O)C1CCCN(C(=O)N(C)C)C1)c1ccccc1 (stereo unspecified) | active: 25.9 µM | 
49 | COc1ccc(CN2CCNC(=O)C2CC(=O)NCCCC2CCCC2)c(F)c1 (stereo unspecified) | inconclusive: 2.31 µM [activator, partial curve, poor fit] | 
50 | COc1ccc(CCN(C)S(=O)(=O)c2cn(C)c(=O)n(C)c2=O)cc1OC |  | inconclusive: -2.83%
51 | CCN(CC)C(=S)SC1=CCS(=O)(=O)C1 |  | inconclusive: 7.38%
52 | CC(C)(C)c1ccc(-c2nnc(SCC(=O)Nc3sc4c(c3C#N)CCCC4)o2)cc1 |  | inconclusive: 1.48%

One compound at a time, as listed above:
O=[N+]([O-])c1ccccc1/C=C/CN1CCCCC1 is listed as lipid storage change, negative = inhibition: inconclusive: -14%
Cc1ccc(NC(=O)CN(C)C(=O)C(C)N2CCN(Cc3ccccc3C)CC2)cc1 (stereo unspecified) is listed as Potency: inconclusive: 6.51 µM [activator, single point]
COc1ccc(CN2CCNC(=O)C2CC(=O)NCCCC2CCCC2)c(F)c1 (stereo unspecified) is listed as Potency: inconclusive: 2.31 µM [activator, partial curve, poor fit]
CCOc1ccc(NC(=O)c2ccccc2SC)cc1 is listed as Potency: inconclusive: 8.2 µM [falling, partial curve]

Random excerpt: 2 entries already listed, in no set order.
Row | SMILES | Potency | lipid storage change, negative = inhibition
17 | Cc1cccc(-n2[nH]c(C)c(C=Nc3ccc4[nH]c(=O)[nH]c4c3)c2=O)c1 |  | inconclusive: -17.7%
38 | Cc1cc(C)c2cc(CN(Cc3ccco3)C(=O)NCc3ccccc3)c(=O)[nH]c2c1 |  | inconclusive: 11.3%

Additional results:

Row | SMILES | Potency | lipid storage change, negative = inhibition
53 | Cc1nc(N2CCN(C)CC2)[nH]c(=O)c1Cc1cccc2ccccc12 |  | inconclusive: 37.5%
54 | CCOc1ccc(N=C2C(=O)N(CN3CCOCC3)c3ccccc32)cc1 |  | inconclusive: 13%
55 | CC(=O)c1cnc2c(C(=O)O)cnn2c1C |  | inconclusive: -15%
56 | COc1ccccc1CC(=O)Nc1ccc(-c2nnc(-c3ccco3)o2)cc1 |  | inconclusive: 43.5%
57 | Oc1ccccc1Nc1ncnc2c1oc1ccccc12 |  | inconclusive: 35.2%
58 | O=C(O)CCCCCNC(=O)c1ccc(C(=O)NCCCCCC(=O)O)cc1 | inconclusive: 0.231 µM [falling, full curve, poor fit] | 
59 | CCOC(=O)C1CCN(C(=O)COC(=O)COc2ccccc2OC)CC1 |  | inconclusive: 0.344%
60 | O=c1ccc(C(F)(F)F)cn1Cc1cc(=O)n2cc(Br)ccc2n1 | inconclusive: 4.61 µM [activator, single point] | 
61 | COc1ccc(CNCCSc2nnnn2C)c(OC)c1OC | inconclusive: 0.411 µM [falling, full curve] | 
62 | COc1ccccc1CNC(=O)COC(=O)c1cnccn1 |  | inconclusive: 32.9%
63 | Cc1ccc(S(=O)(=O)N(CC(=O)NCC2CCCO2)Cc2cccc(C)c2)cc1 (stereo unspecified) |  | inconclusive: -7.07%
64 | CCOC(=O)C1(CCOc2ccccc2)CCN(CCCn2cccn2)CC1 |  | inconclusive: -3.86%
65 | Cc1cccc(NC(=S)N=Nc2c(O)n(C)c3ccc(S(=O)(=O)N4CCOCC4)cc23)c1 |  | inconclusive: -4.39%
66 | Cc1ccc(S(=O)(=O)N/N=C2/CC(c3ccccc3)Oc3ccccc32)cc1[N+](=O)[O-] (stereo unspecified) |  | inconclusive: 5.42%
67 | COc1ccc(Cl)cc1-c1nc(SCC(=O)N(C)CCC#N)n[nH]1 |  | inconclusive: 8.52%
68 | COCC(=O)N1CCC(Oc2ccc(C(=O)N(C)C3CCCCC3)cc2)CC1 |  | inconclusive: 29.1%
69 | CCOC(=O)COc1cc2oc(=O)cc(C)c2cc1[N+](=O)[O-] |  | inconclusive: -16.2%
70 | Cc1ccc(SCc2cc(=O)[nH]c(N3CCCCC3)n2)cc1 |  | inconclusive: -40.7%
71 | O=C(NCCc1nc2ccccc2[nH]1)Nc1ccccc1 |  | inconclusive: 14.5%
72 | CC[C@@]1(O)C(=O)OCc2c1cc1n(c2=O)Cc2cc3c(N)cccc3nc2-1 |  | inconclusive: -12.3%
73 | c1cc2c(cc1-c1[nH]ncc1CN1CC3C[C@@H]4CC1C[C@H](C3)C4)OCO2 |  | inconclusive: 19.7%
74 | Cc1cccc(NC(=O)c2cc(S(=O)(=O)N3CCC4(CC3)OCCO4)ccc2F)c1 | inconclusive: 6.51 µM [activator, single point] | 
75 | CCOc1ccc(N(CC(=O)NCCc2ccccc2)C(=O)CCC(=O)Nc2nccs2)cc1 |  | inconclusive: 40.4%
76 | O=C(CC12CC3CC(CC(C3)C1)C2)NCCN1CCOCC1 | inconclusive: 0.651 µM [falling, full curve] | 
